Reference: paper PMC3754431
No constants are given. Whether binding was seen depends on the method and setting. Binding seen in cells or lysates may run through a third protein. Some results given as binding are weak or reduced against the parent protein; the word gives no strength.

Amino acid sequences for entries named in this document (tags omitted).
UniProt P06791: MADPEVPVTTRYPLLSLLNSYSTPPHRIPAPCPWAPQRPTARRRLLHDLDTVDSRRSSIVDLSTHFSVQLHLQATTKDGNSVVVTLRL
UniProt P04016: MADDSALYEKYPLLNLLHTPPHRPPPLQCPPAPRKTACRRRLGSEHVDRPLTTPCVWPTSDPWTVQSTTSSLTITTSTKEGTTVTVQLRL
UniProt P08670: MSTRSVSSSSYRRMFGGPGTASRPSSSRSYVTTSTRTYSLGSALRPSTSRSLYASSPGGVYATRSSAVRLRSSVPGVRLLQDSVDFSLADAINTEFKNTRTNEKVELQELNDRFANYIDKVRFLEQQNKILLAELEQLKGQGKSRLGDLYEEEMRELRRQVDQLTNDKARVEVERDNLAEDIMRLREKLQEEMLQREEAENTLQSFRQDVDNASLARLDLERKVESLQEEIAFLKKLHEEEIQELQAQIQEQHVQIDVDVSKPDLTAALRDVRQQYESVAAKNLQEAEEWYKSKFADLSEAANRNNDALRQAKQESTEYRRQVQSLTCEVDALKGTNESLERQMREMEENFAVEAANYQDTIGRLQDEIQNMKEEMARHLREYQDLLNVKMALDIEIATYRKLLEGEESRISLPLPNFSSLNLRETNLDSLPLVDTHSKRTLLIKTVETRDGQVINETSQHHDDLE

Key:
[1] = target: FLAG-18E1^E4 (human papillomavirus type 18) (UniProt P06791); test: co-IP; lysates of 293T cells transfected with FLAG-18E1^E4; anti-FLAG antibody and Protein-G agarose in NET-Gel Buffer, 4°C, ≥ 4 h; immunoblot of the endogenous partner
[2] = target: GST-tagged 11E1^E4 (human papillomavirus type 11) (UniProt P04016); test: pull-down; purified GST-fusion protein (10 μg) with 35S-Met labeled in vitro translated vimentin; 20 mM Tris-HCl pH 7.5, 50 mM NaCl, 4 mM MgCl2, 0.5% Nonidet P-40, 2% skim milk, 2 mM DTT; 4°C, 2 h; SDS-PAGE, detected with BAS5000; only the target purified
[3] = target: GST-tagged 18E1^E4 (human papillomavirus type 18) (UniProt P06791); test: as above

Row | Substance | binding [1] | binding [2] | binding [3]
1 | endogenous vimentin (from UniProt P08670 1-466) | binds |  | 
2 | 35S-methionine labeled vimentin obtained by in vitro translation (from UniProt P08670 1-466) |  | binds weakly | binds weakly
